Library screening results

By UniProt entry, the sequences of proteins in these tests, tags left out.
UniProt E9BF75, entry or part of it: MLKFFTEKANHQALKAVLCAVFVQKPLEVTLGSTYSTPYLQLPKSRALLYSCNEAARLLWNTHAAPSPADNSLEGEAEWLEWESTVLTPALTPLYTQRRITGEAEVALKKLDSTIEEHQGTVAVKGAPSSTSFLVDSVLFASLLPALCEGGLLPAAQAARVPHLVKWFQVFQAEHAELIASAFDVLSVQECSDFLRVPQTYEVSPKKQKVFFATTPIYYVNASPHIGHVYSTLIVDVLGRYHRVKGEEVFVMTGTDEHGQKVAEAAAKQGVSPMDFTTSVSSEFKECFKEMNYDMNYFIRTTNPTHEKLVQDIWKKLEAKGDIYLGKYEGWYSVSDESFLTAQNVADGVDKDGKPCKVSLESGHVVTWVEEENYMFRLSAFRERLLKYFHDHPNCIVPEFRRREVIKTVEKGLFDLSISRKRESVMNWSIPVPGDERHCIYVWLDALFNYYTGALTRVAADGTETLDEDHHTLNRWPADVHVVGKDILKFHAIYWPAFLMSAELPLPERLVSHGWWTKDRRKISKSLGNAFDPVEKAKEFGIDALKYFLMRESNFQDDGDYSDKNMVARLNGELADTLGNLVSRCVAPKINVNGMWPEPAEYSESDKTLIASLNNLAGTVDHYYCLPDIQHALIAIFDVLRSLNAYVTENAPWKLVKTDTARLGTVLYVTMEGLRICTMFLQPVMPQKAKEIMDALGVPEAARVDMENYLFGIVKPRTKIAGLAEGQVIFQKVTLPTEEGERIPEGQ

Source: ChEMBL document CHEMBL3988442, “University of Dundee, Small-Polar-MMV Screening Library” (2021).

Results are percentages, as filed.
How 0% and 100% were set is not recorded. Most values in the screen are low, and negative values occur.
This is an unselected part of the compounds tested.
A dash means the value is not listed here; it may have been measured.

LdMetRS: 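Methionyl-tRNA synthetase (putative), Leishmania donovani (UniProt E9BF75). Primary screen of methionyl-tRNA synthetase; the read-out is not stated. The test concentration is not given. Values are per cent inhibition. Of about 68,000 compounds tested this way, about 24 (0.035%) reached 50% or more in at least one test.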
Mtb heat-shock: 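Assay on Mycobacterium tuberculosis, filed only as a heat shock assay from Cornell; the read-out is not stated. The concentration is filed as 10 mM, unlikely as a test dose, so the dose is not known. Direction is inferred from retests: higher values go with stronger inhibition. About 69,000 compounds were tested under these conditions; 1.4% (about 930) showed 50% or more at least once.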

| # | SMILES | LdMetRS | Mtb heat-shock |
|---|---|---|---|
| 1 | `CC(C)N(CCSc1ncnc2[nH]ncc12)C(C)C` | 14.65 | 4.065 |
| 2 | `CC(=O)N1CCC2(CC1)CC(N1CCOCC1)c1ccc(C)cc12` (stereo unspecified) | 9.441 | - |
| 3 | `Oc1cc(CN2CCC(O)(Cn3ccnc3)CC2)nc2c(Cl)cccc12` | 0.2457 | -15.83 |
| 4 | `CN(C)c1ccc(NC(=O)C2CN(Cc3ccccc3)CCO2)cn1` (stereo unspecified) | 22.81 | -3.154 |
| 5 | `O=C(c1ccc2c(c1)OCCCO2)N1CCCC(n2cccn2)C1` (stereo unspecified) | 15.03 | 6.324 |
| 6 | `Oc1nc(C2CC2)nc2c1nnn2C1CCN(Cc2ccoc2)CC1` | 17.45 | -7.552 |
| 7 | `[H][C@@]12CS(=O)(=O)C[C@]1([H])N(C(=O)c1[nH]c3ccccc3c1Cl)CCN2CC` | - | -2.011 |
| 8 | `c1ccc(-n2cc(CN3CCCC3Cn3cncn3)nn2)cc1` (stereo unspecified) | 20.92 | -5.218 |
| 9 | `CCN(CC)C(=O)c1c(Br)cnn1CC` | 12.16 | -2.963 |
| 10 | `CSCC(=O)N1CCc2c(cnc(C)c2-c2noc(-c3cc[nH]n3)n2)C1` | 6.599 | -21.81 |
| 11 | `COc1c(CNCc2cccc(C(=O)N(C)C)c2)c(C)nn1C` | 19.13 | -35.46 |
| 12 | `CC(Cn1cccn1)NCc1cccc(C#N)c1` (stereo unspecified) | 5.415 | -37.31 |
| 13 | `CNC(=O)[C@H]1C[C@@H]2CN(C(=O)c3ccsc3)C[C@@H]2N1S(C)(=O)=O` | 12.88 | - |
| 14 | `[H][C@]12CC[C@]([H])(CN(C(=O)CCS(C)(=O)=O)C1)N(Cc1ccccn1)C2=O` | - | 3.172 |
| 15 | `CNS(=O)(=O)c1ccc(C(=O)N2CCCC2Cc2ccccc2)o1` (stereo unspecified) | 8.661 | -33.5 |
| 16 | `Cn1ccc2c(C(=O)NCC3(C(N)=O)CCOCC3)cccc21` | 17.02 | 9.787 |
| 17 | `c1cnc(N2CCC3(CCN(CC4CCOCC4)CC3)C2)nc1` | 3.75 | - |
| 18 | `C=Cn1ncc(CN2CCC(c3ncc(Cl)cc3S(C)(=O)=O)CC2)c1C` | 5.814 | -28.64 |
| 19 | `O=C1CCC2(CCN(Cc3ccc(F)cc3)CC2)N1Cc1ccccc1` | 15.82 | - |
| 20 | `[H][C@]12CC[C@]([H])(CN(C(=O)c3ccccn3)C1)N(C(=O)CN1CCOC1=O)C2` | - | -10.15 |
| 21 | `Cc1c(C(=O)N2CCC(C(O)c3ccc(Cl)cc3)CC2)cnn1C` (stereo unspecified) | 12.37 | -7.344 |
| 22 | `CNc1nc(C(=O)N2CCCC(COc3ccc(F)cc3)C2)cs1` (stereo unspecified) | 4.336 | -4.572 |
| 23 | `CC(C)n1[nH]c(=O)c2c1NC(=O)CSC2c1cccc(OCC(N)=O)c1` (stereo unspecified) | 11.43 | -4.344 |
| 24 | `O=C(CC(F)(F)F)NC(c1ccc(Cl)cc1)c1ncon1` (stereo unspecified) | 12.32 | 10.14 |
| 25 | `Cc1ccc(CN2CCc3ncnc(C4CC4)c3CC2)s1.O=C(O)C(F)(F)F` | - | -2.751 |
| 26 | `[H][C@]12CC[C@]([H])(CN(S(=O)(=O)N(C)C)C1)N(C(=O)c1sc(CC)nc1C)C2` | - | -7.803 |
| 27 | `Cc1cccc(-c2nc(CN3CCc4c(ncn4C)C3)no2)c1` | 4.453 | 2.997 |
| 28 | `COCCNC(=O)c1ccc2c(=O)n3c(nc2c1)CCCCCC3` | 3.939 | -11.7 |
| 29 | `Cn1ncc2c(N3CCN(C(N)=O)CC3)nc(C3CCCC3)nc21` | 2.655 | -1.716 |
| 30 | `Cn1cc(CN2CCC(Cn3cc(-c4ccccc4)nn3)CC2)cn1` | 6.137 | -22.44 |
| 31 | `CC(C)NC(=O)N1CCc2onc(C(=O)NCCN(C)C)c2C1.O=C(O)C(F)(F)F` | - | -8.712 |
| 32 | `Cn1cc(-c2nc(CN3CCc4c(ncn4C)C3)cs2)cn1` | 12.22 | -15.5 |
| 33 | `CC(=O)c1cn(CCC(=O)NCCC(=O)O)c2ccccc12` | 15.35 | 8.906 |
| 34 | `CC(SCC(=O)N(C)CC(=O)NC1CC1)c1ccc(F)c(F)c1` (stereo unspecified) | 18.81 | 15.16 |
| 35 | `Cc1noc(C)c1-c1cccc(C2CN(S(=O)(=O)N(C)C)CCO2)n1` (stereo unspecified) | 15.94 | 15.75 |
| 36 | `OC1CCN([C@@H]2CCN(c3nc(-c4ccccc4)no3)C[C@H]2O)CC1` | 12.63 | -13.48 |
| 37 | `Cc1ncc(C)c(N2CCC(CCc3ccccc3)(C(=O)O)CC2)n1` | 18.77 | 16.92 |
| 38 | `CCn1cc2c(n1)C(COCC1CC1)CN(C(=O)c1cc(C)on1)C2` (stereo unspecified) | 16.3 | -31.37 |
| 39 | `O=C(CC1CCCC1)N1C[C@H](Oc2cccnc2)[C@H]2OCCC[C@H]21` | 8.013 | - |
| 40 | `COC(=O)N1CC[C@@]2(O)CCCC[C@H]2[C@@H]1c1ccc2c(c1)OCO2` | 2.688 | - |
| 41 | `CCc1noc(CN(Cc2ccc3c(c2)OCO3)C2CCCC2)n1` | 11.11 | -7.486 |
| 42 | `Cn1cccc1C(=O)NCc1cn2c(n1)CN(CC1CCOCC1)CC2` | 18.56 | - |
| 43 | `CS(=O)(=O)NC1CCN(C(=O)c2ccc3ccccc3c2)C1` (stereo unspecified) | 1.928 | -12.4 |
| 44 | `O=c1[nH]nc2c(S(=O)(=O)N3CCCCC3)cccn12` | 14.36 | 8.517 |
| 45 | `COc1ccccc1N1CCCC(Nc2nccnc2C#N)C1` (stereo unspecified) | 14.66 | -9.011 |
| 46 | `CN(Cc1noc(C2CC2)n1)CC1CCN(CCO)CC1` | -5.435 | -11.76 |
| 47 | `c1ncn(CC2CCCN(Cc3cn4ccsc4n3)C2)n1` (stereo unspecified) | 7.731 | 6.242 |
| 48 | `COc1ccc(CCNCc2c(C)nn(C)c2N(C)C)cc1OC.Cl` | - | 1.572 |
| 49 | `COCC1CN(C(=O)CC2=CCCCC2)Cc2nnn(CC3CC3)c21` (stereo unspecified) | 21.29 | 11.23 |
| 50 | `COC(=O)N1CCc2ccccc2C1C(=O)NCc1cccs1` (stereo unspecified) | 12.23 | 6.187 |
| 51 | `NC(=O)C1CN(C(=O)Nc2ccc(SC(F)(F)F)cc2)CCO1` (stereo unspecified) | 18.33 | -9.034 |
| 52 | `O=C(C1CCC1)N1CCOc2cccc(F)c21` | 11.98 | -10.64 |
| 53 | `Cn1ccnc1C(=O)N[C@@H]1CN(Cc2ccc(F)cc2)[C@@H]2CCCO[C@@H]21` | 15.06 | - |
| 54 | `O=C(c1cc[nH]n1)N1CCCC1c1cnccn1` (stereo unspecified) | 14.84 | 5.941 |
| 55 | `O=C(Cc1ccsc1)N1CCC(Cn2cc(CCO)nn2)CC1` | 10.06 | -6.701 |
| 56 | `CCOc1ccccc1CNCC1CCN(CC(C)O)CC1` (stereo unspecified) | 17.37 | -31.84 |
| 57 | `N#Cc1ccnc(N2CCN(CC(O)c3ccccc3)CC2)c1` (stereo unspecified) | 18.35 | -6.776 |
| 58 | `COc1cc(C(=O)NCC2(N(C)C)CCN(C)CC2)c2ccccc2n1` | 8.438 | 1.558 |
| 59 | `CC(C)(C)c1ncc(C(=O)NCCn2ccnc2)s1` | 0 | -20.35 |
| 60 | `Cc1cc(C(=O)N2CCCCC2c2nc(C)cs2)[nH]n1` (stereo unspecified) | 3.644 | -1.093 |
| 61 | `Cc1cccnc1CN1CCN(C(=O)CCn2ccc(=O)[nH]c2=O)CC1` | 13.33 | 2.245 |
| 62 | `O=C(c1ccc(Cn2cc(Br)cn2)cc1)N1CCCC1` | 0.7519 | -19.14 |
| 63 | `Cc1nccn1CC1CCCN1S(=O)(=O)Cc1cccc(F)c1` (stereo unspecified) | 1.807 | -21.5 |
| 64 | `CCN(Cc1nonc1C)C(=O)c1cnccn1` | 13.53 | -2.156 |
| 65 | `Cn1cnc2c1CCN(CC(O)c1ccc3c(c1)OCCO3)C2` (stereo unspecified) | 5.897 | -39.82 |

The first 5 entries again:

| SMILES | LdMetRS | Mtb heat-shock |
|---|---|---|
| `CC(C)N(CCSc1ncnc2[nH]ncc12)C(C)C` | 14.65 | 4.065 |
| `CC(=O)N1CCC2(CC1)CC(N1CCOCC1)c1ccc(C)cc12` (stereo unspecified) | 9.441 | - |
| `Oc1cc(CN2CCC(O)(Cn3ccnc3)CC2)nc2c(Cl)cccc12` | 0.2457 | -15.83 |
| `CN(C)c1ccc(NC(=O)C2CN(Cc3ccccc3)CCO2)cn1` (stereo unspecified) | 22.81 | -3.154 |
| `O=C(c1ccc2c(c1)OCCCO2)N1CCCC(n2cccn2)C1` (stereo unspecified) | 15.03 | 6.324 |